The source of these data is PubChem BioAssay AID192 (DTP/NCI, 2004).

Molecules are shown by their SMILES. The list is a part of this screen's results and no random one: it gathers tests that were run many times, whatever their T/C, doses with no T/C, and many T/C values between a quarter and a half above the control. Further doses and runs are listed elsewhere. T/C is the treated group as % of the vehicle group. Some doses have a count of surviving animals in place of a T/C: the source files T/C as zero there, which appears to mark a toxic dose or a test without result, not a measured value. Some doses without a T/C left all or most animals alive at the check, yet need not have been tolerated: survival well below the control is almost never listed, so the zero probably covers shortened survival too. Survivors were counted at the toxicity check, usually on the fifth day, unless a day is given; later deaths do not show. Schedules are NCI's codes, read here as Q, the interval in days (D) or hours (H), X, the number of doses. Counts like (3×) count equal records among those shown. Some entries hold several experiments; the results are listed from low to high. Some molecules as drawn cover several salts, stereoisomers or complexes of the source; a dose is that of the sample tested. Where survival is the endpoint, the PubChem record calls one and a half times the control and up active, and a quarter to a half above the control has no call in these data; cut-offs in other NCI protocols can differ. Some T/C values are followed by the survivors on the day toxicity was checked, most often the fifth; without a count, all were alive then.

This experiment relates to BDF1 mice, B16 melanoma ip, median survival T/C. The experiment in a line: NCI In Vivo Anticancer Drug Screen. Data for tumor model B16 Melanoma (intraperitoneal) in B6D2F1 (BDF1) mice. As to conditions: T/C endpoint: median survival time, higher T/C = longer survival. In short, it runs like this: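 Survival or tumor size is measured after treatment of tumor-bearing mice and normalised to the vehicle-treated control group.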

[1] abbreviates: dose: 50.0 mg/kg/injection, schedule: Q01DX009 (ip), vehicle: saline.
[2] abbreviates: dose: 100.0 mg/kg/injection, schedule: Q01DX009 (ip), vehicle: saline.
[3] abbreviates: dose: 200.0 mg/kg/injection, schedule: Q01DX009 (ip), vehicle: Klucel (hydroxypropylcellulose) (HPC).
Setting [4] is: dose: 200.0 mg/kg/injection, schedule: Q01DX009 (ip), vehicle: saline with Tween-80.
[5] abbreviates: dose: 200.0 mg/kg/injection, schedule: Q01DX009 (ip), vehicle: saline.
Where [6] appears, read: dose: 400.0 mg/kg/injection, schedule: Q01DX009 (ip), vehicle: Klucel (hydroxypropylcellulose) (HPC).
Where [7] appears, read: dose: 400.0 mg/kg/injection, schedule: Q01DX009 (ip), vehicle: saline with Tween-80.
Setting [8] is: dose: 400.0 mg/kg/injection, schedule: Q01DX009 (ip), vehicle: saline.

Regarding `C[C@]12C=CC(=O)C=C1CC[C@@H]1[C@@H]2C(=O)C[C@@]2(C)[C@H]1CC[C@]2(O)C(=O)CO`, the T/C runs as follows: (dose: 50.0 mg/kg/injection, schedule: Q01DX009 (ip), vehicle: Klucel (hydroxypropylcellulose) (HPC)) 89, 92, 93, 107 (2×), 108 [5 of 6 alive], 109, 110, 115, 117, 118, 121 % of control; (dose: 50.0 mg/kg/injection, schedule: Q01DX009 (ip), vehicle: saline with Tween-80, evaluated on day 45) 88, 102, 113 % of control; (dose: 50.0 mg/kg/injection, schedule: Q01DX009 (ip), vehicle: saline with Tween-80, evaluated on day 60) 90, 97, 102, 110, 113, 115 % of control (2×); under setting [1], 93, 102, 105 (3×), 111 % of control; (dose: 100.0 mg/kg/injection, schedule: Q01DX009 (ip), vehicle: Klucel (hydroxypropylcellulose) (HPC)) 89, 102, 102 [5 of 6 alive], 103, 113, 118, 120, 121 (2×), 123, 125, 140 % of control; (dose: 100.0 mg/kg/injection, schedule: Q01DX009 (ip), vehicle: saline with Tween-80, evaluated on day 45) 89, 105, 114 % of control [5 of 6 alive]. In addition, the T/C reads like this: (dose: 100.0 mg/kg/injection, schedule: Q01DX009 (ip), vehicle: saline with Tween-80, evaluated on day 60) 102 [5 of 6 alive], 106, 107 [5 of 6 alive], 110, 114, 121, 140 % of control; under setting [2], 91, 94, 102, 108 (2×), 109, 111 % of control; under setting [3], 93 (2×), 100 (2×), 110, 113, 113 [5 of 6 alive], 128 (2×), 132 % of control; (dose: 200.0 mg/kg/injection, schedule: Q01DX009 (ip), vehicle: saline with Tween-80, evaluated on day 45) 100 and 102 % of control; (dose: 200.0 mg/kg/injection, schedule: Q01DX009 (ip), vehicle: saline with Tween-80, evaluated on day 60) 90, 109, 112 [5 of 6 alive], 119, 120 % of control; under setting [5], 100, 105, 108, 111 % of control [5 of 6 alive]. The T/C was 100, 102, 109 (2×), 110 [4 of 6 alive], 126, 138 % of control under setting [6]; 89 % of control (dose: 400.0 mg/kg/injection, schedule: Q01DX009 (ip), vehicle: saline with Tween-80, evaluated on day 45); 87, 95, 102, 112 % of control [4 of 6 alive] (dose: 400.0 mg/kg/injection, schedule: Q01DX009 (ip), vehicle: saline with Tween-80, evaluated on day 60); 91 [5 of 6 alive], 116, 122 % of control under setting [8]. For the same compound, the survivor count reads like this: under setting [1], 6 of 6; (dose: 100.0 mg/kg/injection, schedule: Q01DX009 (sc), vehicle: steroid suspending solution) 10 of 10 and 6 of 6; under setting [3], 6 of 6; under setting [4], 5 of 6 (2×) and 6 of 6; under setting [5], 6 of 6; (dose: 200.0 mg/kg/injection, schedule: Q01DX009 (sc), vehicle: steroid suspending solution) 6 of 6. The survivor count is 10 of 10 (dose: 200.0 mg/kg/injection, schedule: Q01DX017 (sc), vehicle: steroid suspending solution); 5 of 6 and 6 of 6 under setting [6]; 6 of 6 (2×) under setting [7]; 4 of 6, 5 of 6, 6 of 6 under setting [8]; 10 of 10 (dose: 400.0 mg/kg/injection, schedule: Q01DX009 (sc), vehicle: steroid suspending solution); 10 of 10 (dose: 400.0 mg/kg/injection, schedule: Q01DX017 (sc), vehicle: steroid suspending solution). Also, the survivor count runs as follows: (dose: 800.0 mg/kg/injection, schedule: Q04DX003 (sc), vehicle: steroid suspending solution) 10 of 10; (dose: 800.0 mg/kg/injection, schedule: Q04DX005 (sc), vehicle: steroid suspending solution) 10 of 10.
With `CCOC(=O)CN1CCC2CC1c1c([nH]c3ccccc13)C2c1cc2c(cc1OC)N(C)C1C(O)(C(=O)OC)C(OC(C)=O)C3(CC)C=CCN4CCC21C43` (stereo unspecified), under “dose: 0.25 mg/kg/injection, schedule: Q01DX009 (ip), vehicle: other”, the survivor count was 10 of 10.
For the compound `Oc1ccc(Nc2c3ccccc3nc3c2ccc2ccccc23)cc1CN(CCCl)CCCl`, the T/C by setting is: (dose: 1.7 mg/kg/injection, schedule: Q01DX009 (ip), vehicle: saline) 137 % of control; (dose: 2.7 mg/kg/injection, schedule: Q01DX009 (ip), vehicle: saline) 132 % of control [9 of 10 alive]. For the same compound, the survivor count (dose: 4.0 mg/kg/injection, schedule: Q01DX009 (ip), vehicle: saline) is reported as 10 of 10.
For `[CH3][Pb]([CH3])([CH3])[Cl]`, the survivor count reads like this: (dose: 3.0 mg/kg/injection, schedule: Q01DX009 (ip), vehicle: saline) 10 of 10; (dose: 6.0 mg/kg/injection, schedule: Q01DX009 (ip), vehicle: saline) 0 of 10.
Take `CCC1=C(C)c2cc3[n-]c(cc4nc(cc5[n-]c(cc1n2)c(C)c5CCC(=O)OC)C(CCC(=O)OC)=C4C)c(C)c3CC.[Ni+2]`: the survivor count (dose: 18.75 mg/kg/injection, schedule: Q01DX009 (ip), vehicle: saline with Tween-80) was 10 of 10; the survivor count (dose: 37.5 mg/kg/injection, schedule: Q01DX009 (ip), vehicle: saline with Tween-80) is listed as 9 of 10; the survivor count (dose: 75.0 mg/kg/injection, schedule: Q01DX009 (ip), vehicle: saline with Tween-80) is listed as 10 of 10.
With `CC(C)c1ccc(C2CCCCC2O)cc1` (stereo unspecified), the survivor count under setting [4] was 8 of 10.
Turning to `C/C=C1\CN(C)[C@H]2Cc3c([nH]c4ccccc34)[C@@H](c3cc4[nH]c5c(c4cc3OC)CCN3C[C@H]4C[C@H](CC)[C@H]3[C@@]5(C(=O)OC)C4)C[C@H]1C2C(=O)OC` (stereo partly specified), the survivor count runs as follows: (dose: 50.0 mg/kg/injection, schedule: Q04DX003 (ip), vehicle: saline with Tween-80) 10 of 10; (dose: 100.0 mg/kg/injection, schedule: Q04DX003 (ip), vehicle: saline with Tween-80) 10 of 10; under setting [4], 6 of 6; under setting [7], 4 of 6.
As for `O=C1C2C(C(=O)N1c1ccc(OCc3ccccc3)cc1)C1c3ccccc3C2C2CCCCN21` (stereo unspecified), where the note is “dose: 25.0 mg/kg/injection, schedule: Q01DX009 (ip), vehicle: water”, the survivor count is given as 10 of 10.
Turning to `CC1Cc2c(Cl)cc(C(=O)NC(Cc3ccccc3)C(=O)O)c(O)c2C(=O)O1` (stereo unspecified), the T/C (dose: 1.0 mg/kg/injection, schedule: Q01DX009 (ip), vehicle: saline with Tween-80) was 129 % of control [9 of 10 alive].
Consider `CCC(=O)c1ccc2c(c1)N(C(C)CN(C)C)c1ccccc1S2` (stereo unspecified), for which, for the setting “dose: 6.25 mg/kg/injection, schedule: Q01DX009 (ip), vehicle: saline”, the T/C was 125 % of control. In addition, the survivor count under setting [2] is reported as 2 of 10.
`CN(C)NCCN1CCN(CCCN2c3ccccc3Sc3ccc(C(F)(F)F)cc32)CC1`: for the setting “dose: 15.0 mg/kg/injection, schedule: Q01DX009 (ip), vehicle: saline”, the T/C was 125 % of control. Under “dose: 30.0 mg/kg/injection, schedule: Q01DX009 (ip), vehicle: saline”, the survivor count is 7 of 10.
Take `CCC1CN1P(=O)(N(CC)CC)N1CC1CC` (stereo unspecified): the survivor count under setting [4] is 10 of 10.
For `O=C(Nc1nncs1)c1ccncc1`, the survivor count under setting [7] is 7 of 10.
`COc1cc(NS(C)(=O)=O)ccc1Nc1c2ccc([N+](=O)[O-])cc2nc2c(C)c(C)ccc12`: the survivor count by setting is: (dose: 50.0 mg/kg/injection, schedule: Q01DX009 (ip), vehicle: saline with Tween-80) 6 of 6; (dose: 100.0 mg/kg/injection, schedule: Q01DX009 (ip), vehicle: saline with Tween-80) 5 of 6; under setting [4], 3 of 6; under setting [7], 0 of 6.
For `Cc1cn(C2CC(F)C(CO)O2)c(=O)[nH]c1=O` (stereo unspecified), the T/C under setting [5] was 132 % of control.
`O=C(O)CCC(=O)O`: the survivor count runs as follows: (dose: 80.0 mg/kg/injection, schedule: Q01DX009 (ip), vehicle: water) 10 of 10; (dose: 160.0 mg/kg/injection, schedule: Q01DX009 (ip), vehicle: water) 9 of 10 and 10 of 10; (dose: 640.0 mg/kg/injection, schedule: Q01DX009 (ip), vehicle: water) 2 of 10.
As for `NC1CC1c1ccccc1` (stereo unspecified), under setting [1], the survivor count was 4 of 10.
